Test results published in publication doi:10.1101/2025.03.05.641767.

By UniProt entry, the sequences of proteins in these tests, tags left out.
UniProt P43363: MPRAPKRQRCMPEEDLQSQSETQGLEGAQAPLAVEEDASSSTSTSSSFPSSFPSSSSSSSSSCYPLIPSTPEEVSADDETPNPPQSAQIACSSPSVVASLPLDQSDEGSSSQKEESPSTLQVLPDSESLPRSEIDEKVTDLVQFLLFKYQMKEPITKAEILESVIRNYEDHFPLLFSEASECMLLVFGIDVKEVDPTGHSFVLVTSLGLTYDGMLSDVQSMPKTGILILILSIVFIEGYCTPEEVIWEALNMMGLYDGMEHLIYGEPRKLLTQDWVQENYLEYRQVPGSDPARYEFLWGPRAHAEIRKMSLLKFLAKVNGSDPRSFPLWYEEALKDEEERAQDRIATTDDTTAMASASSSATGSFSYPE
UniProt Q92830: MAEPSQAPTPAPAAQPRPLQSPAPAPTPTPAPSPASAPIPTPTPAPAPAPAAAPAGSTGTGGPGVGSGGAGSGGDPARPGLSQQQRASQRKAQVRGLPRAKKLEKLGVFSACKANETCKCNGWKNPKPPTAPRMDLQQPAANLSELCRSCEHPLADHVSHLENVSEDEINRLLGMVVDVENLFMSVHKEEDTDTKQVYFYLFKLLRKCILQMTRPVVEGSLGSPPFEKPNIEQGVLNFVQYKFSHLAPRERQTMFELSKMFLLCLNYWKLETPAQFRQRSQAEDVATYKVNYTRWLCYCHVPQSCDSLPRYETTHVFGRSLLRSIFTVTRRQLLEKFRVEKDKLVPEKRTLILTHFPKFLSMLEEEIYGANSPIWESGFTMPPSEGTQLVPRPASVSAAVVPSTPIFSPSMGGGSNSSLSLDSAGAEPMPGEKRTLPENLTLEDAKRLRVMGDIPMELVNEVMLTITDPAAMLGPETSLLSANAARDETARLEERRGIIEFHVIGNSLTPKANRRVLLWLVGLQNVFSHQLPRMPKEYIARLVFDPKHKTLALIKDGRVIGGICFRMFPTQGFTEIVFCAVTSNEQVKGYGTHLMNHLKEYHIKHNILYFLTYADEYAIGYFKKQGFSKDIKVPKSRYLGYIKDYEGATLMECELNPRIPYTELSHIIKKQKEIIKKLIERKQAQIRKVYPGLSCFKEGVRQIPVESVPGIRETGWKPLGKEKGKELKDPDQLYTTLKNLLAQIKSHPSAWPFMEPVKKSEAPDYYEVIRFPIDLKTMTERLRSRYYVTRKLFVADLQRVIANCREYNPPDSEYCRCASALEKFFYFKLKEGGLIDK
UniProt Q92831: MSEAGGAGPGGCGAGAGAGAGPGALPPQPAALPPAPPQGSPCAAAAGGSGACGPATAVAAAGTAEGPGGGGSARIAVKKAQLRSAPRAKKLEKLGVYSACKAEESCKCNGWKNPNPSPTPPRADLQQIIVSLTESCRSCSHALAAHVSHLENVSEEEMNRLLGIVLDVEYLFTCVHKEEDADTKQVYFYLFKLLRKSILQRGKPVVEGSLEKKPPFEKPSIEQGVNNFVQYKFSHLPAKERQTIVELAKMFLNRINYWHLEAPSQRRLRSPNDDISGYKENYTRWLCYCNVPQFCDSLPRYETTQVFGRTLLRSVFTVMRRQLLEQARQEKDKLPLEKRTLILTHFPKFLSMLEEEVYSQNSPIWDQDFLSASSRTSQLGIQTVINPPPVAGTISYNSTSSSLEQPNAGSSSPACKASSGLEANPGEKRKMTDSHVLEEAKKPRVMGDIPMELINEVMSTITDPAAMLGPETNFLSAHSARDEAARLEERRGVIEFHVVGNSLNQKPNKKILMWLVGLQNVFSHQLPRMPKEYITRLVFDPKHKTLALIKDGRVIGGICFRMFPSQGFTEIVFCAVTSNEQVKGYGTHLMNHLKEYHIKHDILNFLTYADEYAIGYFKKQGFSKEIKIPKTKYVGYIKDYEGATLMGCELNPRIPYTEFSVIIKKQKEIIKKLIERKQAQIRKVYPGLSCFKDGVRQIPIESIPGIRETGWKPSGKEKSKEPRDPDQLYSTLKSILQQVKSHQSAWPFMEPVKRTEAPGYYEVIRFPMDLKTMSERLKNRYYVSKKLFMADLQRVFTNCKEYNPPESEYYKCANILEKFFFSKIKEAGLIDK

Molecular target: TAP-MAGE-A10 (human) (UniProt P43363)
Assay: affinity purification with mass spectrometry

With “KAT2A (endogenous) (from UniProt Q92830 1-837) (enzyme)” the binding was “binds”.

In the case of “KAT2B (endogenous) (from UniProt Q92831 1-832) (enzyme)”, the binding is reported as “binds”.

No constants are given. Whether binding was seen depends on the method and setting. Binding seen in cells or lysates may run through a third protein. These calls come from enrichment with a bait or labelling near it, and not all partners need be listed.
